Data: PubChem BioAssay AID2718 (Broad Institute, 2010)
In all, about 320,000 compounds went through this assay and about 480 (0.15%) were called active. Inconclusive means that the source gave no clear call. Such entries were picked first, then a sample of the others. Rule as the data show it: active = inhibition above about 26% (passing the limit was not always enough); inconclusive = no clear call, values can overlap the other calls.

Protein sequences, listed by entry. Tags and fused reporters are not part of them.
UniProt O15379, whole entry, looked up: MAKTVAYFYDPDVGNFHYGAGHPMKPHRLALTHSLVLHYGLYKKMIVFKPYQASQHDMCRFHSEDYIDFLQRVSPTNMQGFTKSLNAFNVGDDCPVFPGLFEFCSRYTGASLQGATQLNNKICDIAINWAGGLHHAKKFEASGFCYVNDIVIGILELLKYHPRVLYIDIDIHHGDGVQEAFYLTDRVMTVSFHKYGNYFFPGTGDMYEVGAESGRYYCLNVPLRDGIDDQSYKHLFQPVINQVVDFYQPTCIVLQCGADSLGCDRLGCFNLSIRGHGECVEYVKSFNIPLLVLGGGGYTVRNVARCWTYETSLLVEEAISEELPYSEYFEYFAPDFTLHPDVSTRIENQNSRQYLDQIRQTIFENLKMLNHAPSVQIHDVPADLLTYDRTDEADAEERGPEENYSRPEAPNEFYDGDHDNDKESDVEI

These compounds were tested against Histone deacetylase 3 (Homo sapiens) (UniProt O15379) (assay: HDAC3 deacetylase inhibitors, primary screen, biochemical, fluorescence, cell-free homogeneous (AID 2718)). Conditions: recombinant HDAC3, fluorogenic peptide/trypsin coupled, at 8.3 µM, stronger effect = higher value.

| SMILES | inhibition |
| --- | --- |
| CN(N)c1ccc2c(C(F)(F)F)cc(C(F)(F)F)nc2n1 | inconclusive: 14.5% |
| Cc1nn(C(C)(C)C)c(OC(=O)c2ccco2)c1Sc1ccccc1 | inconclusive: 18% |
| Cc1cc(S(=O)(=O)N2CCCC2)c(C)s1 | inconclusive: 10.4% |
| Cc1ccc(/C=N/N2C(=O)C3C(C2=O)C2C=CC3C23CC3)o1 (stereo not given) | inconclusive: 21.4% |
| Cc1ccc(NC(=O)C2CCN(C(=O)c3ccccc3C)CC2)nc1 | inactive: 1.56% |
| COc1ccc(COC(=O)c2ccc(C)c(S(=O)(=O)N3CCOCC3)c2)cc1F | inconclusive: 14.9% |
| OC(COCC(F)(F)C(F)(F)C(F)(F)C(F)F)Cn1c2ccc(Cl)cc2c2cc(Cl)ccc21 (stereo not given) | inconclusive: 26.3% |
| COc1ccc(C2CC(=O)N3CN(c4ccc(C)c(Cl)c4)CSC3=C2C#N)cc1OC (stereo not given) | active: 42.5% |
| S=c1nc(-c2ccccc2)oc2c1CCCC2 | inconclusive: 20.8% |
| CCNC(=O)C1CCCN(c2nc(C)cc(C)n2)C1 (stereo not given) | inconclusive: 20.1% |
| CC(=O)NC1C(=O)N(Cc2ccccc2)c2ccc(Br)cc21 (stereo not given) | inconclusive: 19.2% |
| Cn1nc(OCC(=O)O)cc1C(F)(F)F | inactive: 1.81% |
| NS(=O)(=O)c1ccc(CNC(=S)Nc2ccc(F)c(Cl)c2)cc1 | inconclusive: 23.3% |
| O=C(O)c1ccccc1C(=O)Nc1n[nH]c(=S)s1 | inconclusive: 22.7% |
| Cc1cccc(NC(=O)COc2ccc(/C=C\c3[nH]c(=O)[nH]c(=O)c3[N+](=O)[O-])cc2)c1 | inconclusive: 22% |
| O=C(Oc1cccc(Oc2ccccc2)c1)N1CCOCC1 | inconclusive: 26.1% |
| COc1cccc(CNC(=O)Cc2ccc(-c3ccccc3)cc2)c1 | inconclusive: 25% |
| CC[C@]1(c2cccc(C)c2)C(=O)N(C(=O)OC)N1C(=O)OC | inconclusive: 8.1% |
| COc1ccccc1N1C(=O)CC(N2CCN(c3ccc(F)cc3)CC2)C1=O (stereo not given) | inconclusive: 15.5% |
| CC1CCN(CCCNC(=O)C2CCN(S(=O)(=O)N3CCC4(CC3)OCCO4)CC2)CC1 | inactive: -1.02% |
| Cc1ccc(C2C(/C=C3/SC(=S)NC3=O)=C(c3cccs3)Oc3ccccc32)cc1 (stereo not given) | inactive: -6.65% |
| Cc1ccccc1CS(=O)(=O)c1nnc([C@H](Cc2ccccc2)NC(=O)OC(C)(C)C)o1 | active: 45.7% |
| Cc1ccc(C(=O)NC(=S)Nc2ccccc2C(F)(F)F)cc1C | inconclusive: 13.7% |
| NC(=O)[C@H]1CC2(CC(c3cccc(NC(=O)COc4ccc(Cl)cc4)c3)=NO2)CN1C(=O)Cc1ccc([N+](=O)[O-])cc1 (stereo not given in full) | inconclusive: 12.7% |
| O=C(NCCc1c[nH]c2ccccc12)C(=O)NCC1OCCN1S(=O)(=O)c1ccc(Cl)cc1 (stereo not given) | inconclusive: 12.8% |
| COC(=O)Cn1c(=NC(=O)C2COc3ccccc3O2)sc2cc(S(N)(=O)=O)ccc21 (stereo not given) | inconclusive: 16.7% |
| Cc1cc(NC(=O)CN2C(=O)CC(c3ccco3)Sc3ccccc32)no1 (stereo not given) | active: 41.1% |
| COc1ccc(C(=S)N2CCN(c3cccc(Cl)c3)CC2)c(OC)c1 | inconclusive: 21.5% |

| SMILES | inhibition |
| --- | --- |
| Cc1cc(C)cc(NC(=O)CSc2nnc(CN3CCOCC3)n2C)c1 | inactive: -6.64% |
| COc1cccc(CNC(=O)c2cc3ccccn3n2)c1 | inconclusive: 11.1% |
| CCOc1ccc(NC(=S)NNC(=S)Nc2cccc(C(F)(F)F)c2)cc1 | inconclusive: 22.8% |
| O=C(Nc1c(O)c2ccccc2[nH]c1=O)c1ccco1 | inactive: 0.594% |
| O=S1(=O)CCOC[C@H](CC2CCCCC2)N1Cc1cccc(C(F)(F)F)c1 | inconclusive: 23.3% |
| COc1ccc(-n2nc(C(=O)c3cccs3)cc(-c3nc4ccccc4[nH]3)c2=N)cc1 | inactive: 0.226% |
| CN(C1=NC(=O)C(CC(=O)O)S1)c1ccc(O)cc1 (stereo not given) | inactive: -7.94% |
| COc1ccccc1-c1nc(SCC(=O)N2CCC(C(N)=O)CC2)n[nH]1 | inconclusive: 11.9% |
| COc1cc(C(C(=O)NC2CCCC2)N(C(=O)Cc2cccs2)C2CC2)cc(OC)c1OC (stereo not given) | inconclusive: 8.76% |
| C/C=C(/C)C(=O)Nc1cccc(C2=NOC3(C2)C[C@H](C(N)=O)N(C(=O)Cc2ccc([N+](=O)[O-])cc2)C3)c1 (stereo not given in full) | inconclusive: 19.8% |
| COc1ccc(CC(=O)Nc2cc(S(=O)(=O)N3CCOCC3)ccc2N2CCCC2)cc1OC | inconclusive: 16.8% |
| O=C(Nc1cccc2ccccc12)/C(Cl)=C/c1ccccc1 | inactive: -0.235% |
| CCCCCc1ccc(-c2cn(CC3CCCCC3)nn2)cc1 | inconclusive: 14.7% |
| CC1C/C(=N\NC(=O)c2ccc(NS(=O)(=O)c3ccc(Br)cc3)cc2)CC(C)(C)C1 (stereo not given) | active: 36.9% |
| CCCCOc1ccc(S(N)(=O)=O)cc1 | inactive: 4.03% |
| CCOC(=O)Nc1cc(OC)c(OC)cc1Cc1nccc2cc(OC)c(OC)cc12 | inconclusive: 28% |
| COC(=O)c1nc(NC(=O)c2ccccc2)n[nH]1 | active: 58.7% |
| Cc1[nH]c2ccccc2c1/C=N/Nc1nc2ccccc2[nH]1 | inactive: 5.15% |
| O=C(Nc1ncccc1O)c1ccc(Cl)c(S(=O)(=O)N2CCCCCC2)c1 | inconclusive: 24.9% |
| Cn1c(N)c(C(=O)COC(=O)c2ccc(Cl)nc2)c(=O)n(C)c1=O | inactive: 4.96% |
| CN(CC(=O)Nc1ccc(F)cc1)c1ccc(S(=O)(=O)N2CCCCC2)cc1[N+](=O)[O-] | inconclusive: 16.8% |
| O=C(CSc1nnc(-c2ccco2)n1Cc1ccco1)NCc1cccs1 | inconclusive: 12.8% |
| COc1ccc(NC(=O)c2cc(C)on2)cc1OC | inconclusive: 16.4% |
| CCOCCCNC(=O)CN1CCN(c2ccc(F)cc2)CC1 | inconclusive: 18.7% |
| COc1ccc(CC(=O)c2ccc(OC)c(OC)c2)cc1 | inconclusive: 19.9% |
| CN(c1ccccc1)S(=O)(=O)c1ccc(NC(=O)c2nc(S(C)(=O)=O)ncc2Cl)cc1 | inactive: -0.471% |
| COC(=O)c1nnn(-c2nonc2N)c1CSc1nnc(C)s1 | inconclusive: 22.7% |

Three structures from above, arranged by formula weight, rising:

| SMILES | inhibition |
| --- | --- |
| CN(C1=NC(=O)C(CC(=O)O)S1)c1ccc(O)cc1 (stereo not given) | inactive: -7.94% |
| O=C(Oc1cccc(Oc2ccccc2)c1)N1CCOCC1 | inconclusive: 26.1% |
| Cc1ccc(C(=O)NC(=S)Nc2ccccc2C(F)(F)F)cc1C | inconclusive: 13.7% |
